Data source: PubChem BioAssay AID743121 (NCATS, 2013)

- Purpose: 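Partners whose loss is lethal together with topoisomerase I blockade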 (primary screen)
- Cell system: MDA-MB-231 cells, a human breast cancer line
- Reagent: single siRNA against human genes, 20 nM siRNA (0.8 pmol per well)
- Timing: 120 h (drug added 48 h after transfection, read 72 h later)
- Conditions: camptothecin 20 nM (about EC30) for 72 h; vehicle 0.1% DMSO in parallel plates
- Read-out: 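CellTiter-Glo ATP signal, scaled to control siRNA as percent viability; sensitisation given as log2 of untreated divided by camptothecin-treated viability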
- Scale: log2 vehicle/camptothecin viability: higher = stronger sensitisation to camptothecin; viability with camptothecin and viability without drug: higher = more viable cells
- Call rule: 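Each gene scored by redundant siRNA activity (RSA) over its individual siRNA ratios; a gene is called active at p < 0.001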
Shown is an unselected part of about 26,000 reagents tested. Over the whole deposit, 167 (0.63%) got an active call. 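Calls are per gene from RSA p-values that are not deposited; an individual active-marked siRNA can sensitise only weakly.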 A number with no mark means an inactive call. The numbers tell different reagents against one gene apart.

gene knocked down	siRNA no.	log2 vehicle/camptothecin viability	viability with camptothecin (% of control)	viability without drug (% of control)
MAP4K4 (mitogen-activated protein kinase kinase kinase kinase 4)	1	-0.07	46.7	44.5
MAP4K4 (mitogen-activated protein kinase kinase kinase kinase 4)	2	-0.32	117	94.1
MAP4K4 (mitogen-activated protein kinase kinase kinase kinase 4)	3	0.169	49.9	56.1
MAP4K4 (mitogen-activated protein kinase kinase kinase kinase 4)	4	-0.202	80.8	70.2
TMED1 (transmembrane p24 trafficking protein 1)	1	-0.385	124	95.3
TMED1 (transmembrane p24 trafficking protein 1)	2	-0.0741	82.8	78.6
TMED1 (transmembrane p24 trafficking protein 1)	3	-0.418	120	90.2
TMED1 (transmembrane p24 trafficking protein 1)	4	-0.0051	84.8	84.5
METTL5 (methyltransferase 5, N6-adenosine)	1	0.00204	87.3	87.4
METTL5 (methyltransferase 5, N6-adenosine)	2	0.583	53.9	80.7
METTL5 (methyltransferase 5, N6-adenosine)	3	0.309	69.2	85.7
METTL5 (methyltransferase 5, N6-adenosine)	4	-0.358	59.3	46.3
ZWINT (ZW10 interacting kinetochore protein)	1	-0.336	68.1	54
ZWINT (ZW10 interacting kinetochore protein)	2	-0.0734	111	106
ZWINT (ZW10 interacting kinetochore protein)	3	-0.29	102	83.5
ZWINT (ZW10 interacting kinetochore protein)	4	0.437	27.2	36.8
LPAL2 (lipoprotein(a) like 2 (pseudogene))	1	-0.81	58.1	33.2
LPAL2 (lipoprotein(a) like 2 (pseudogene))	2	-0.0269	86.5	84.9
LPAL2 (lipoprotein(a) like 2 (pseudogene))	3	0.417	60.5	80.8
MSX1 (msh homeobox 1)	1	0.0411	79.4	81.7
MSX1 (msh homeobox 1)	2	-0.32	53.8	43.1
MSX1 (msh homeobox 1)	3	-0.0909	104	97.5
MSX1 (msh homeobox 1)	4	-0.084	110	103
TMEM11 (transmembrane protein 11)	1	-0.124	135	124
TMEM11 (transmembrane protein 11)	2	-0.529	72.7	50.4
TMEM11 (transmembrane protein 11)	3	0.116	22.8	24.7
TMEM11 (transmembrane protein 11)	4	0.114	69.7	75.5

Quoted from the listing, 4 entries:
gene knocked down	siRNA no.	log2 vehicle/camptothecin viability	viability with camptothecin (% of control)	viability without drug (% of control)
TMEM11 (transmembrane protein 11)	1	-0.124	135	124
TMEM11 (transmembrane protein 11)	2	-0.529	72.7	50.4
TMEM11 (transmembrane protein 11)	3	0.116	22.8	24.7
TMEM11 (transmembrane protein 11)	4	0.114	69.7	75.5

Further records follow.
gene knocked down	siRNA no.	log2 vehicle/camptothecin viability	viability with camptothecin (% of control)	viability without drug (% of control)
SERPINB11 (serpin family B member 11)	1	-0.0784	51.9	49.2
SERPINB11 (serpin family B member 11)	2	-0.41	57	42.9
SERPINB11 (serpin family B member 11)	3	0.111	97.5	105
TAOK1 (TAO kinase 1)	1	-0.022	123	121
TAOK1 (TAO kinase 1)	2	-0.0624	113	108
TAOK1 (TAO kinase 1)	3	-0.335	79.6	63.1
TAOK1 (TAO kinase 1)	4	-0.588	105	69.7
SIRPD (signal regulatory protein delta)	1	-0.513	57.7	40.4
SIRPD (signal regulatory protein delta)	2	-0.104	35.1	32.7
SIRPD (signal regulatory protein delta)	3	-0.503	72.4	51.1
SIRPD (signal regulatory protein delta)	4	-0.164	87.7	78.3
RHOU (ras homolog family member U)	1	-0.343	54.3	42.8
RHOU (ras homolog family member U)	2	-0.203	19.4	16.8
RHOU (ras homolog family member U)	3	-0.17	117	104
RHOU (ras homolog family member U)	4	-0.19	71	62.2
LDHA (lactate dehydrogenase A)	1	-0.313	114	91.5
LDHA (lactate dehydrogenase A)	2	0.382	35.3	46
LDHA (lactate dehydrogenase A)	3	-0.0735	106	101
LDHA (lactate dehydrogenase A)	4	-0.215	62.8	54.1
